No constants are given. Whether binding was seen depends on the method and setting. In cells and extracts the contact can be indirect. Some entries that bind do so weakly or less than the wild type. For part of these data: Tags and fused reporters may be left off the sequences shown. Values belong to the molecule of their own block, whether it stands above or below them.
Assays:
GFP-tagged BBS17 [1] = molecular target: T1, GFP-tagged BBS17 (UniProt Q9NQ48); assay: condition: only shRNA-mediated reduction in the expression of BBS1; co-IP; lysates of HEK293T cells with GFP-BBS17 and shRNA against Bbs1; GFP-BBS17 used to precipitate IR; IRβ blotted
T1 sequence: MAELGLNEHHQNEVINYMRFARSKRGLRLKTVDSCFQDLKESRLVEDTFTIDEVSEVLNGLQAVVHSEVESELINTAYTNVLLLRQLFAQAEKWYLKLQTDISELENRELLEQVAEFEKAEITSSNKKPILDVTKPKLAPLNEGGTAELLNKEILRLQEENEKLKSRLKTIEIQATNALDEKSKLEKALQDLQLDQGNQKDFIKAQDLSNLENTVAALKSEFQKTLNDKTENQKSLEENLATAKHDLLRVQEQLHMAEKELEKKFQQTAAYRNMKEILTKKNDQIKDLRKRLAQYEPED

By UniProt entry, the sequences of proteins in these tests, tags left out. Where a name states a change or a piece, a line headed by the entry shows the natural chain unless it says otherwise.
UniProt P06213: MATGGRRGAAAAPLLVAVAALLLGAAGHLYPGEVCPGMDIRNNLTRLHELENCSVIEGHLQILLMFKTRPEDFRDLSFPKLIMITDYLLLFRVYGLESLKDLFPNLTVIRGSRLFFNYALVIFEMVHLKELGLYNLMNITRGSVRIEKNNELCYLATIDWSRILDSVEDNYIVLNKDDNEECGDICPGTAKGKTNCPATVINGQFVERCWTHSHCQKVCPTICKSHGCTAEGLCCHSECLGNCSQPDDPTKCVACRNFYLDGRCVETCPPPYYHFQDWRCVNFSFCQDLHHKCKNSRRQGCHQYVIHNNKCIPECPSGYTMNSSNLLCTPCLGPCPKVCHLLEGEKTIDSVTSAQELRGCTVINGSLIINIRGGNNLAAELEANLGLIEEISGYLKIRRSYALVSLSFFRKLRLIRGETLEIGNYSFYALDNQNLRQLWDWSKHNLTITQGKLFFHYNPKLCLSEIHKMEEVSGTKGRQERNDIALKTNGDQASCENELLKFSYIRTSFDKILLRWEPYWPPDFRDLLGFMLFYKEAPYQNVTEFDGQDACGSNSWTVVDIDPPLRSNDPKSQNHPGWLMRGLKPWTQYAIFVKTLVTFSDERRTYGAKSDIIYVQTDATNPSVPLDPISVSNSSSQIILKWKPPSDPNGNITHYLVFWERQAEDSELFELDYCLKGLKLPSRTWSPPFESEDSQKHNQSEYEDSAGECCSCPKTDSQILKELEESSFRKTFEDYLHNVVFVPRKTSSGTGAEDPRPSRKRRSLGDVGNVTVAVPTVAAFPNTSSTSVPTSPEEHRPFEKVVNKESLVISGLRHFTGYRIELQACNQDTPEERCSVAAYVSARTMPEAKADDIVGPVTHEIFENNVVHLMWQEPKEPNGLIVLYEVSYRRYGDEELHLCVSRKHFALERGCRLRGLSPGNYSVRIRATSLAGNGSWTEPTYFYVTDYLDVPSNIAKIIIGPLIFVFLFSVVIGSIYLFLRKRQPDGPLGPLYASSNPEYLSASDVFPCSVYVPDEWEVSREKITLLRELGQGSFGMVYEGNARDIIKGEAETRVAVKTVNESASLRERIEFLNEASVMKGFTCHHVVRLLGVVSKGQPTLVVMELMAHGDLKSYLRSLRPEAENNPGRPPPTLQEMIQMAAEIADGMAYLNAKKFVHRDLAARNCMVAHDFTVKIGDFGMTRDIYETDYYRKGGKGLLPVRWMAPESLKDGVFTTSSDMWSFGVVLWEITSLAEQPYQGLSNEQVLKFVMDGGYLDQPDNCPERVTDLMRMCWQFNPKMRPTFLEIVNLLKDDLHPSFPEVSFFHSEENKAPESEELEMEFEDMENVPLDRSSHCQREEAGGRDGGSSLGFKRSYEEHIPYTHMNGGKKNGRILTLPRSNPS
UniProt P15208: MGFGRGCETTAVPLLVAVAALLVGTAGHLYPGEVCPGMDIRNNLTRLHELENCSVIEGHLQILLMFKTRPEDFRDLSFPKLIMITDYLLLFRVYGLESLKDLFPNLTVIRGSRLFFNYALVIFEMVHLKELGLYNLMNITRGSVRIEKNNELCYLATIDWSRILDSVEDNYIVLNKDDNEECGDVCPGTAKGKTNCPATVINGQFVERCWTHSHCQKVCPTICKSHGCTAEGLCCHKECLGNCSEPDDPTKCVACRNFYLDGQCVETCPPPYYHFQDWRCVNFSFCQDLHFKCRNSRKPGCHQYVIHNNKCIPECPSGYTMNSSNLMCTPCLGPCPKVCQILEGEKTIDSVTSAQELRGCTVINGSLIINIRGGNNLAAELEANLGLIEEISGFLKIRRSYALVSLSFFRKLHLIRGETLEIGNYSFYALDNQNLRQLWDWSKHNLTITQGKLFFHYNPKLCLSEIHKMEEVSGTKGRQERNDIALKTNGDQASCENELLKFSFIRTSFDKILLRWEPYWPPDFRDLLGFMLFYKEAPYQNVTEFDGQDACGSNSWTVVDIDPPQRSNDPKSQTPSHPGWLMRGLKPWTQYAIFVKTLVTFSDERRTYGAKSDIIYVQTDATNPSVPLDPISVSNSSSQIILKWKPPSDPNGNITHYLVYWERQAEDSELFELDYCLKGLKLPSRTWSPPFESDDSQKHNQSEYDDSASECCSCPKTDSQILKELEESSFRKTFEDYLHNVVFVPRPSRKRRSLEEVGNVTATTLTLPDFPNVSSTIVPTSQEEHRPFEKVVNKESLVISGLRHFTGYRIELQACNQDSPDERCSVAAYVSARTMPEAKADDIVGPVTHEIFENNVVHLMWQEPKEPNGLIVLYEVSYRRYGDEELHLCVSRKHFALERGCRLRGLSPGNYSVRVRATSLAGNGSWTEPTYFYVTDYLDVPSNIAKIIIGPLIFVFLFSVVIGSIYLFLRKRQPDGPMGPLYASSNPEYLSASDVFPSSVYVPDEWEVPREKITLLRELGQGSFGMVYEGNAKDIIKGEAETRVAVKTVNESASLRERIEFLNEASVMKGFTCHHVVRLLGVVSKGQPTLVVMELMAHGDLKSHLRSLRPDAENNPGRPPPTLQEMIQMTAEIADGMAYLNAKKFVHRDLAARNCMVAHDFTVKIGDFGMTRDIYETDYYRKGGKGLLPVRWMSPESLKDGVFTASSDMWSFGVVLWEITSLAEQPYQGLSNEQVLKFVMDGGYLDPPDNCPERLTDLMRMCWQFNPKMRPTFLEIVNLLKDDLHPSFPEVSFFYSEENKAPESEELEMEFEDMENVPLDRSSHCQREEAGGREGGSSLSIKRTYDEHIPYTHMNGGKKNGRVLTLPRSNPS

Flag-tagged BBS17 = molecular target: T2, Flag-tagged BBS17 (UniProt Q9NQ48); assay: co-IP; lysates of HEK293T cells expressing GFP- or Flag-tagged BBS17; precipitation with IR antibody (endogenous IR) or by the tagged BBS17; IR detected by its β subunit
T2 sequence: T1 sequence

GFP-tagged BBS17 [2] = molecular target: T1, GFP-tagged BBS17; assay: as above
[3] = molecular target: insulin receptor (endogenous, HEK293T cells) (human (endogenous in HEK293T)) (UniProt P06213); assay: as above
[4] = molecular target: insulin receptor (endogenous, mouse brain) (mouse (endogenous in mouse brain)) (UniProt P15208); assay: co-IP; mouse brain lysates; endogenous IR (β subunit) used to pull down endogenous BBS17

binding (GFP-tagged BBS17 [1]): no binding | binding (Flag-tagged BBS17): binds | binding (GFP-tagged BBS17 [2]): binds
Molecule: insulin receptor (endogenous, HEK293T cells) (from UniProt P06213 28-758; P06213 763-1382)

binding [3]: binds
B1: GFP-tagged BBS17 (protein, UniProt Q9NQ48 1-299)
chain: T1 sequence

binding [3]: binds
B2: Flag-tagged BBS17 (protein, UniProt Q9NQ48 1-299)
chain: T1 sequence

binding [4]: binds
B3: BBS17 (endogenous, mouse brain) (protein, UniProt Q9JHQ5 1-299)
chain: MAELGLNEHHQNEVINYMRFARSKRGLRLKTVDSCFQDLKDSRLVEETFTIDEVSEVLNGLQAVVHSEVESELINTAYTNVLLLRQLFSQAEKWYLKLQTDISELENRELLEQVAEFEKAEFVSSSKKPIIDITKPKLVPINEGGTTELLNKEILRLQQENEKLKSRLKTIEIQAVNALDEKSKLERVLQDLQLDQENQQDLLKAQDLDDLENTVATLRSEFQKTLNDKTENQKSLEENLAAAKHDLLRVQEQLSMAEKELEKKFQQTAAYRNMKEILTKKNDQIKDLRKRLAKYESED
